Reference: patent EP0454060B1, “3-(Mercaptoalkyl)-quinazoline-2,4(1H,3H)-diones, processes for their preparation, and pharmaceutical compositions” (priority 1990, dated 1991)
For at least one compound, name, drawing or mass did not settle the structure.

tested on: DNP-spezifischer Serumantikörper (humorale Immunantwort); assay: Takatsy test for serum antibody titre after DNFB immunisation; format: in vivo, Meerschweinchen (Albino-Koloniezucht); details: titre difference versus control group; blood 14 days after DNFB; >+1 stimulatory, <-1 suppressive

SMILES	DNP-spezifische Antikörper (AK-Titer-Differenz)
Cc1ccc2[nH]c(=O)n(CCS)c(=O)c2c1 [Beispiel 14a, 6-Methyl-3-(2-mercaptoethyl)-chinazolin-2,4(1H,3H)-dion]	- 1,9
COc1cc2[nH]c(=O)n(CC(C)S)c(=O)c2cc1OC (stereo not shown) [Beispiel 14e, 6,7-Dimethoxy-3-(2-mercaptopropyl)-chinazolin-2,4(1H,3H)-dion]	± 0
O=c1[nH]c2ccc(F)cc2c(=O)n1CCCS [Beispiel 14d, 6-Fluor-3-(3-mercaptopropyl)-chinazolin-2,4(1H,3H)-dion]	± 0
O=c1[nH]c2ccc(Br)cc2c(=O)n1CCCS [Beispiel 14b, 6-Brom-3-(3-mercaptopropyl)-chinazolin-2 4(1H 3H)-dion]	+ 2,2
